In patent publication US9284543B2, “Neutral active soluble truncated PH20 polypeptides and uses thereof” (Halozyme, Inc., priority 2008, dated 2016):

B1: SPAM1-DAVD: C-terminally truncated human PH20, precursor 456 aa (SEQ ID NO:40), mature 421 aa (SEQ ID NO:92) (protein, listed as Homo sapiens)
chain 1: MGVLKFKHIFFRSFVKSSGVSQIVFTFLLIPCCLTLNFRAPPVIPNVPFLWAWNAPSEFCLGKFDEPLDMSLFSFIGSPRINATGQGVTIFYVDRLGYYPYIDSITGVTVNGGIPQKISLQDHLDKAKKDITFYMPVDNLGMAVIDWEEWRPTWARNWKPKDVYKNRSIELVQQQNVQLSLTEATEKAKQEFEKAGKDFLVETIKLGKLLRPNHLWGYYLFPDCYNHHYKKPGYNGSCFNVEIKRNDDLSWLWNESTALYPSIYLNTQQSPVAATLYVRNRVREAIRVSKIPDAKSPLPVFAYTRIVFTDQVLKFLSQDELVYTFGETVALGASGIVIWGTLSIMRSMKSCLLLDNYMETILNPYIINVTLAAKMCSQVLCQEQGVCIRKNWNSSDYLHLNPDNFAIQLEKGGKFTVRGKPTLEDLEQFSEKFYCSCYSTLSCKEKADVKDTDAVD
chain 2: LNFRAPPVIPNVPFLWAWNAPSEFCLGKFDEPLDMSLFSFIGSPRINATGQGVTIFYVDRLGYYPYIDSITGVTVNGGIPQKISLQDHLDKAKKDITFYMPVDNLGMAVIDWEEWRPTWARNWKPKDVYKNRSIELVQQQNVQLSLTEATEKAKQEFEKAGKDFLVETIKLGKLLRPNHLWGYYLFPDCYNHHYKKPGYNGSCFNVEIKRNDDLSWLWNESTALYPSIYLNTQQSPVAATLYVRNRVREAIRVSKIPDAKSPLPVFAYTRIVFTDQVLKFLSQDELVYTFGETVALGASGIVIWGTLSIMRSMKSCLLLDNYMETILNPYIINVTLAAKMCSQVLCQEQGVCIRKNWNSSDYLHLNPDNFAIQLEKGGKFTVRGKPTLEDLEQFSEKFYCSCYSTLSCKEKADVKDTDAVD
modifications: HuPH20 precursor 1-456; Mature HuPH20 36-456
B2: SPAM1-DTDA: C-terminally truncated human PH20, precursor 454 aa (SEQ ID NO:41), mature 419 aa (SEQ ID NO:93) (protein, listed as Homo sapiens)
chain 1: MGVLKFKHIFFRSFVKSSGVSQIVFTFLLIPCCLTLNFRAPPVIPNVPFLWAWNAPSEFCLGKFDEPLDMSLFSFIGSPRINATGQGVTIFYVDRLGYYPYIDSITGVTVNGGIPQKISLQDHLDKAKKDITFYMPVDNLGMAVIDWEEWRPTWARNWKPKDVYKNRSIELVQQQNVQLSLTEATEKAKQEFEKAGKDFLVETIKLGKLLRPNHLWGYYLFPDCYNHHYKKPGYNGSCFNVEIKRNDDLSWLWNESTALYPSIYLNTQQSPVAATLYVRNRVREAIRVSKIPDAKSPLPVFAYTRIVFTDQVLKFLSQDELVYTFGETVALGASGIVIWGTLSIMRSMKSCLLLDNYMETILNPYIINVTLAAKMCSQVLCQEQGVCIRKNWNSSDYLHLNPDNFAIQLEKGGKFTVRGKPTLEDLEQFSEKFYCSCYSTLSCKEKADVKDTDA
chain 2: LNFRAPPVIPNVPFLWAWNAPSEFCLGKFDEPLDMSLFSFIGSPRINATGQGVTIFYVDRLGYYPYIDSITGVTVNGGIPQKISLQDHLDKAKKDITFYMPVDNLGMAVIDWEEWRPTWARNWKPKDVYKNRSIELVQQQNVQLSLTEATEKAKQEFEKAGKDFLVETIKLGKLLRPNHLWGYYLFPDCYNHHYKKPGYNGSCFNVEIKRNDDLSWLWNESTALYPSIYLNTQQSPVAATLYVRNRVREAIRVSKIPDAKSPLPVFAYTRIVFTDQVLKFLSQDELVYTFGETVALGASGIVIWGTLSIMRSMKSCLLLDNYMETILNPYIINVTLAAKMCSQVLCQEQGVCIRKNWNSSDYLHLNPDNFAIQLEKGGKFTVRGKPTLEDLEQFSEKFYCSCYSTLSCKEKADVKDTDA
modifications: HuPH20 precursor 1-454; Mature HuPH20 36-454
B3: SPAM1-VKDT: C-terminally truncated human PH20, precursor 452 aa (SEQ ID NO:42), mature 417 aa (SEQ ID NO:94) (protein, listed as Homo sapiens)
chain 1: MGVLKFKHIFFRSFVKSSGVSQIVFTFLLIPCCLTLNFRAPPVIPNVPFLWAWNAPSEFCLGKFDEPLDMSLFSFIGSPRINATGQGVTIFYVDRLGYYPYIDSITGVTVNGGIPQKISLQDHLDKAKKDITFYMPVDNLGMAVIDWEEWRPTWARNWKPKDVYKNRSIELVQQQNVQLSLTEATEKAKQEFEKAGKDFLVETIKLGKLLRPNHLWGYYLFPDCYNHHYKKPGYNGSCFNVEIKRNDDLSWLWNESTALYPSIYLNTQQSPVAATLYVRNRVREAIRVSKIPDAKSPLPVFAYTRIVFTDQVLKFLSQDELVYTFGETVALGASGIVIWGTLSIMRSMKSCLLLDNYMETILNPYIINVTLAAKMCSQVLCQEQGVCIRKNWNSSDYLHLNPDNFAIQLEKGGKFTVRGKPTLEDLEQFSEKFYCSCYSTLSCKEKADVKDT
chain 2: LNFRAPPVIPNVPFLWAWNAPSEFCLGKFDEPLDMSLFSFIGSPRINATGQGVTIFYVDRLGYYPYIDSITGVTVNGGIPQKISLQDHLDKAKKDITFYMPVDNLGMAVIDWEEWRPTWARNWKPKDVYKNRSIELVQQQNVQLSLTEATEKAKQEFEKAGKDFLVETIKLGKLLRPNHLWGYYLFPDCYNHHYKKPGYNGSCFNVEIKRNDDLSWLWNESTALYPSIYLNTQQSPVAATLYVRNRVREAIRVSKIPDAKSPLPVFAYTRIVFTDQVLKFLSQDELVYTFGETVALGASGIVIWGTLSIMRSMKSCLLLDNYMETILNPYIINVTLAAKMCSQVLCQEQGVCIRKNWNSSDYLHLNPDNFAIQLEKGGKFTVRGKPTLEDLEQFSEKFYCSCYSTLSCKEKADVKDT
modifications: HuPH20 precursor 1-452; Mature HuPH20 36-452
B4: SPAM1-ADVK: C-terminally truncated human PH20, precursor 450 aa (SEQ ID NO:43), mature 415 aa (SEQ ID NO:95) (protein, listed as Homo sapiens)
chain: MGVLKFKHIFFRSFVKSSGVSQIVFTFLLIPCCLTLNFRAPPVIPNVPFLWAWNAPSEFCLGKFDEPLDMSLFSFIGSPRINATGQGVTIFYVDRLGYYPYIDSITGVTVNGGIPQKISLQDHLDKAKKDITFYMPVDNLGMAVIDWEEWRPTWARNWKPKDVYKNRSIELVQQQNVQLSLTEATEKAKQEFEKAGKDFLVETIKLGKLLRPNHLWGYYLFPDCYNHHYKKPGYNGSCFNVEIKRNDDLSWLWNESTALYPSIYLNTQQSPVAATLYVRNRVREAIRVSKIPDAKSPLPVFAYTRIVFTDQVLKFLSQDELVYTFGETVALGASGIVIWGTLSIMRSMKSCLLLDNYMETILNPYIINVTLAAKMCSQVLCQEQGVCIRKNWNSSDYLHLNPDNFAIQLEKGGKFTVRGKPTLEDLEQFSEKFYCSCYSTLSCKEKADVK
modifications: HuPH20 precursor 1-450
B5: SPAM1-IISS: C-terminally truncated human PH20, precursor 505 aa (SEQ ID NO:4), mature 470 aa (SEQ ID NO:56) (protein, listed as Homo sapiens)
chain 1: MGVLKFKHIFFRSFVKSSGVSQIVFTFLLIPCCLTLNFRAPPVIPNVPFLWAWNAPSEFCLGKFDEPLDMSLFSFIGSPRINATGQGVTIFYVDRLGYYPYIDSITGVTVNGGIPQKISLQDHLDKAKKDITFYMPVDNLGMAVIDWEEWRPTWARNWKPKDVYKNRSIELVQQQNVQLSLTEATEKAKQEFEKAGKDFLVETIKLGKLLRPNHLWGYYLFPDCYNHHYKKPGYNGSCFNVEIKRNDDLSWLWNESTALYPSIYLNTQQSPVAATLYVRNRVREAIRVSKIPDAKSPLPVFAYTRIVFTDQVLKFLSQDELVYTFGETVALGASGIVIWGTLSIMRSMKSCLLLDNYMETILNPYIINVTLAAKMCSQVLCQEQGVCIRKNWNSSDYLHLNPDNFAIQLEKGGKFTVRGKPTLEDLEQFSEKFYCSCYSTLSCKEKADVKDTDAVDVCIADGVCIDAFLKPPMETEEPQIFYNASPSTLSATMFIVSILFLIISS
chain 2: LNFRAPPVIPNVPFLWAWNAPSEFCLGKFDEPLDMSLFSFIGSPRINATGQGVTIFYVDRLGYYPYIDSITGVTVNGGIPQKISLQDHLDKAKKDITFYMPVDNLGMAVIDWEEWRPTWARNWKPKDVYKNRSIELVQQQNVQLSLTEATEKAKQEFEKAGKDFLVETIKLGKLLRPNHLWGYYLFPDCYNHHYKKPGYNGSCFNVEIKRNDDLSWLWNESTALYPSIYLNTQQSPVAATLYVRNRVREAIRVSKIPDAKSPLPVFAYTRIVFTDQVLKFLSQDELVYTFGETVALGASGIVIWGTLSIMRSMKSCLLLDNYMETILNPYIINVTLAAKMCSQVLCQEQGVCIRKNWNSSDYLHLNPDNFAIQLEKGGKFTVRGKPTLEDLEQFSEKFYCSCYSTLSCKEKADVKDTDAVDVCIADGVCIDAFLKPPMETEEPQIFYNASPSTLSATMFIVSILFLIISS
modifications: HuPH20 precursor 1-505; mature HuPH20 36-505
B6: SPAM1-FLII: C-terminally truncated human PH20, precursor 503 aa (SEQ ID NO:5), mature 468 aa (SEQ ID NO:57) (protein, listed as Homo sapiens)
chain 1: MGVLKFKHIFFRSFVKSSGVSQIVFTFLLIPCCLTLNFRAPPVIPNVPFLWAWNAPSEFCLGKFDEPLDMSLFSFIGSPRINATGQGVTIFYVDRLGYYPYIDSITGVTVNGGIPQKISLQDHLDKAKKDITFYMPVDNLGMAVIDWEEWRPTWARNWKPKDVYKNRSIELVQQQNVQLSLTEATEKAKQEFEKAGKDFLVETIKLGKLLRPNHLWGYYLFPDCYNHHYKKPGYNGSCFNVEIKRNDDLSWLWNESTALYPSIYLNTQQSPVAATLYVRNRVREAIRVSKIPDAKSPLPVFAYTRIVFTDQVLKFLSQDELVYTFGETVALGASGIVIWGTLSIMRSMKSCLLLDNYMETILNPYIINVTLAAKMCSQVLCQEQGVCIRKNWNSSDYLHLNPDNFAIQLEKGGKFTVRGKPTLEDLEQFSEKFYCSCYSTLSCKEKADVKDTDAVDVCIADGVCIDAFLKPPMETEEPQIFYNASPSTLSATMFIVSILFLII
chain 2: LNFRAPPVIPNVPFLWAWNAPSEFCLGKFDEPLDMSLFSFIGSPRINATGQGVTIFYVDRLGYYPYIDSITGVTVNGGIPQKISLQDHLDKAKKDITFYMPVDNLGMAVIDWEEWRPTWARNWKPKDVYKNRSIELVQQQNVQLSLTEATEKAKQEFEKAGKDFLVETIKLGKLLRPNHLWGYYLFPDCYNHHYKKPGYNGSCFNVEIKRNDDLSWLWNESTALYPSIYLNTQQSPVAATLYVRNRVREAIRVSKIPDAKSPLPVFAYTRIVFTDQVLKFLSQDELVYTFGETVALGASGIVIWGTLSIMRSMKSCLLLDNYMETILNPYIINVTLAAKMCSQVLCQEQGVCIRKNWNSSDYLHLNPDNFAIQLEKGGKFTVRGKPTLEDLEQFSEKFYCSCYSTLSCKEKADVKDTDAVDVCIADGVCIDAFLKPPMETEEPQIFYNASPSTLSATMFIVSILFLII
modifications: HuPH20 precursor 1-503; mature HuPH20 36-503

Test system: CHO-S cells
Experiment: Western blot analysis of PH20 expression in media and cells after transient expression
Format: cell-based, Chinese Hamster
Conditions: band at approximately 66 kDa
Summary of the method: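 PH20 expression and solubility were judged by anti-PH20 Western blot of non-reduced media and cell fractions, with expression shown by a ~66 kDa band. Samples came from CHO-S cells transiently transfected (GeneJuice) with mutant PH20-HZ24 DNA and cultured 48-72 h. GPI-anchored mutants were cleaved with PI-PLC to release soluble protein.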

| Molecule | Protein Expression |
| --- | --- |
| B1 | YES |
| B2 | YES |
| B3 | YES |
| B4 | YES |
| B5 | YES |
| B6 | YES |
